We go through one molecule from publication PMC7923178, “Binding of Amyloid β(1–42)-Calmodulin Complexes to Plasma Membrane Lipid Rafts in Cerebellar Granule Neurons Alters Resting Cytosolic Calcium Homeostasis” (International Journal of Molecular Sciences, 2021).

Sequences of proteins named here, by UniProt entry; tags and fusion partners are left off. Residues count along the entry.
UniProt P05067, residues 672-713: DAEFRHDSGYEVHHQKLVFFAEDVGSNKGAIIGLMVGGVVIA

No constants are given. Whether binding was seen depends on the method and setting. In cells and extracts the contact can be indirect.

The target of this assay is amyloid β(1–42) (UniProt P05067). In words: co-IP; 200 µg CGN lysate, pre-treated with 10 mM methyl-β-cyclodextrin for 30 min at 4 °C, incubated with 5 µg mouse anti-β-amyloid antibody (Sigma A8354) and protein A/G PLUS-Agarose; then […] Aβ(1–42) in PBS (or PBS alone as control) for 1 h at 4 °C; washes with PBS plus […] Aβ(1–42); western …; only the target purified.

B1: caveolin-1 (protein, UniProt P41350 1-178)
chain: MSGGKYVDSEGHLYTVPIREQGNIYKPNNKAMADEVNEKQVYDAHTKEIDLVNRDPKHLNDDVVKIDFEDVIAEPEGTHSFDGIWKASFTTFTVTKYWFYRLLSTIFGIPMALIWGIYFAILSFLHIWAVVPCIKSFLIEIQCISRVYSIYVHTFCDPLFEAIGKIFSNIRISTQEEI
For B1, the binding result is “no binding (tested: 0.25 µM Aβ(1–42))”.
